Measured values: US7511167B2, “Two-photon dyes for real-time imaging of lipid rafts” (Korea University Industry and Academy Cooperation Foundation, priority 2006, dated 2009)

What was measured:
[1] = Two-photon fluorescence generalized polarization (GP) imaging of GUVs (Test Example 5); details: for center GP value, high GP peak of bimodal Gaussian fit / center GP value, low GP peak of bimodal Gaussian fit: DOPC/sphingo/chol GUVs
Protocol: (§1) A GP image is obtained using a fluorescent dye by the following procedure. First, cells or model membranes are stained with a fluorescent dye. The intensities of fluorescence emitted from the stained cells or model membranes are measured at 400-460 nm and 470-530 nm. A GP value is calculated by Equation 2: […]
wherein I(400-460) represents the fluorescence intensity at a wavelength of 400 to 460 nm, I(470-530) represents the fluorescence intensity at a wavelength of 470 to 530 nm, and G is the sensitive correction factor in the two wavelength ranges.
The cells or model membranes are colored depending on the obtained GP value to obtain a final GP image.
As the GP value approximates −1, the cells or model membranes are in a hydrophilic environment, which is colored violet or blue. As the GP value approximates 1, the cells or model membranes are in a hydrophobic environment, which is colored red or orange.
The three kinds of GUVs were stained with Laurdan prepared in Comparative Example 1 and TPD1 prepared in Example 1. GP values were calculated in the equatorial sections of the GUVs and converted into images. Specifically, FIG. 6a through 6c are fluorescence GP images of the DOPC GUVs, DOPC/Sphingo/Chol GUVs and DPPC GUVs stained with Laurdan prepared in Comparative Example 1, respectively, and FIG. 6d through 6f are fluorescence GP images of the DOPC GUVs, DOPC/Sphingo/Chol GUVs and DPPC GUVs stained with TPD1 prepared in Example 1, respectively. […] Referring to FIG. 7, the GP distribution curves for the DPPC GUVs are narrow and the center GP values are 0.54 for Laurdan and 0.41 for TPD1, respectively. The center GP values in the DOPC GUVs are 0.044 for Laurdan and −0.35 for TPD1, respectively. The center GP values in the DOPC GUVs are generally negative because the DOPC GUVs is highly hydrophilic. However, the reason why the center GP value for Laurdan is positive is because Laurdan probably aggregated in the fluid membranes. […] Similar results could also be found in the GP distribution curves of the DOPC/sphingo/chol GUVs. Specifically, the GP values in the GUVs stained with Laurdan were slightly higher and the GP distribution curves of the GUVs stained with TPD1 were more symmetrical. When the respective distribution curves were converted into bimodal distribution curves by Gaussian Curve Fitting, the center GP values were 0.09 and 0.36 for the Laurdan-stained GUVs and −0.14 and 0.18 for the TPD1-stained GUVs, respectively. The two peaks for the TPD1-stained GUVs are symmetrical with respect to about zero and the respective GP values are substantially symmetrical. […] Also, the low GP distribution curve is much broader than the high one.
(§2) In the present invention, one- and two-photon fluorescence images were obtained using spectral confocal multiphoton microscopes (TCS SP2, Leica). An argon laser (488 nm) was used as the excitation source for one-photon fluorescence microscopy, and a mode-locked titanium-sapphire laser (780 nm) was used as the excitation source for two-photon fluorescence microscopy. Calculation of the GP values was performed using a home-made program based on the visual C++ format.

[2] = Photoselection tests in giant unilamellar vesicles (Test Example 4); details: DOPC GUVs, polarized two-photon fluorescence
Protocol: Two-photon fluorescence depending on the angle of polarize light provides information about the relative orientation of the two-photon markers present in lipid bilayers. Giant unilamellar vesicles (GUVs) composed of DOPO, DOPC/Sphingo/Chol and DPPC were prepared and stained with Laurdan prepared in Comparative Example 1 and TPD1 prepared in Example 1. The distributions of fluorescence emitted from the stained GUVs by polarization were examined. The results are shown in FIGS. 5a, 5b, 5c, 5e, 5f and 5g. FIGS. 5a, 5b and 5c are photographs showing the distributions of fluorescence emitted from the DOPC GUVs, DOPC/Sphingo/Chol GUVs and DPPC GUVs stained with Laurdan prepared in Comparative Example 1, respectively. FIGS. 5e, 5f and 5g are photographs showing the distributions of fluorescence emitted from the DOPC GUVs, DOPC/Sphingo/Chol GUVs and DPPC GUVs stained with TPD1 prepared in Example 1, respectively. […] In contrast, the fluorescence emitted from the TPD1-stained DOPC GUVs was very weak in areas perpendicular to the polarization but was strong in the other areas (FIG. 5e). […] In addition, the two-photon dye of the present invention was confirmed to be photoselective even in the DOPC GUVs and homogeneously stain the DOPC GUVs. FIGS. 5d and 5h are schematic diagrams illustrating the locations of the two-photon markers present in the lipid bilayers. […]

A431 cells = assay: GP imaging tests in cells (Test Example 6); assay type: cell-based
Protocol: as §1, §2
Intact A431 cells and A431 cells treated with methyl-β-cyclodextrin (MβCD), a drug removing cholesterol from plasma membranes, as samples were prepared. The intact A431 cells and the samples were stained with the two-photon dyes prepared in Example 1 and Comparative Example 1, and their images were obtained by two-photon fluorescence microscopy. The respective images were converted into GP images and the GP distribution curves were plotted. MβCD is known to destroy lipid rafts of cell membranes by removing cholesterol. In principle, the peak in the low GP distribution curve representing hydrophilicity should be unaltered while the peak in the high GP distribution curve representing hydrophobicity should disappear upon treatment of the cell membranes with MβCD. […] In contrast, the images of the TPD1-stained cells are brighter and more uniform than those of the Laurdan-stained cells. […] The hydrophobic domains (lipid rafts) are visualized by red fluorescence, and the hydrophilic domains (phospholipids) are visualized by blue fluorescence. […] From the image obtained after treatment with MβCD, it can be confirmed that the domains (lipid rafts) visualized by red fluorescence before treatment with MβCD completely disappeared. […]

Row | Structure (SMILES) | center GP value ([1]; DOPC GUVs) | center GP value, high GP peak of bimodal Gaussian fit [1] | center GP value, low GP peak of bimodal Gaussian fit [1] | center GP value ([1]; DPPC GUVs) | orientation of the dye molecules in the lipid bilayer [2] | center GP value of the peak in the high GP distribution curve (A431 cells; A431 cells before MβCD treatment) | center GP value of the peak in the high GP distribution curve (A431 cells; A431 cells treated with MβCD) | size of the peak in the high GP distribution curve after MβCD (A431 cells; A431 cells treated with MβCD)
1 | CCCCCCCCCCCC(=O)c1ccc2cc(N(C)C)ccc2c1 [Laurdan, reference compound] | 0.044 | 0.36 | 0.09 | 0.54 | randomly oriented | 0.49 | 0.51 | 
2 | CCCCCCCCCCCC(=O)c1ccc2cc(N(C)CC(=O)O)ccc2c1 [TPD1] | −0.35 | 0.18 | −0.14 | 0.41 | located parallel to the fatty acid tails |  |  | markedly decreased
